Results deposited as PubChem BioAssay AID602196 (INSERM, 2012)

- Purpose: 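Knock-downs that protect lung cancer cells from cisplatin or sensitise them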
- Cells: human A549 lung cancer cells
- Reagents: siRNA pair against human genes
- Time to read-out: 48 h transfection before cisplatin; time from cisplatin to read-out not stated
- Challenge: cisplatin at a dose killing half of control-siRNA cells; exact dose and duration not given
- Read-out: 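Cisplatin cell death as a shift from the 50% death seen with control siRNA; siRNAs toxic or growth-blocking alone scored 0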
- Reading the numbers: two-siRNA summed score (-2 to +2): higher = both siRNAs protect from cisplatin killing; -2 means both sensitise
- Rule for the call: 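siRNAs harmful alone (LDH or WST-1) get 0; others get +1 for less and -1 for more cisplatin killing; genes are active when the two siRNAs give the same sign, summing to ±2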
- Calls: active = both siRNAs shift cisplatin killing the same way; inactive = no consistent shift, or siRNA harmful alone
In all, the deposit lists about 23,000 reagents; below is a random part of them. 455 of them (2%) were called active. 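Active includes both protection and sensitisation; some change values fall well beyond the stated -50 to +50 range.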 A number with no mark means an inactive call. Not all columns of the deposit are shown. Reagent sequences are not shown. Not stated in the record: the amount of reagent.

{"Target gene": "NCF2", "two-siRNA summed score (-2 to +2)": -1}
{"Target gene": "LOC441354", "two-siRNA summed score (-2 to +2)": -1}
{"Target gene": "WDR45B", "two-siRNA summed score (-2 to +2)": 0}
{"Target gene": "PIERCE1", "two-siRNA summed score (-2 to +2)": 1}
{"Target gene": "ITPKC", "two-siRNA summed score (-2 to +2)": 0}
{"Target gene": "STK16", "two-siRNA summed score (-2 to +2)": 1}
{"Target gene": "SPAG4", "two-siRNA summed score (-2 to +2)": 0}
{"Target gene": "NUDT16", "two-siRNA summed score (-2 to +2)": 0}
{"Target gene": "ZNF610", "two-siRNA summed score (-2 to +2)": 0}
{"Target gene": "LOC441770", "two-siRNA summed score (-2 to +2)": 0}
{"Target gene": "LOC440281", "two-siRNA summed score (-2 to +2)": 1}
{"Target gene": "DDX56", "two-siRNA summed score (-2 to +2)": 0}
